# The list is a part of this screen's results and no random one: it gathers tests that were run many times, whatever their T/C, doses with no T/C, and many T/C values between a quarter and a half above the control. Further doses and runs are listed elsewhere. T/C is the treated group as % of the vehicle group. Some entries give survivors of the animals treated and no T/C: the source files T/C as zero there, which appears to mark a toxic dose or a test without result, not a measured value. Some doses without a T/C left all or most animals alive at the check, yet need not have been tolerated: the source hardly ever lists a survival T/C far under the control, and the zero likely stands for such cases as well. Counts of survivors are from the toxicity check (mostly the fifth day) where no day follows; animals may have died later. Schedules are NCI's codes, read here as Q, the interval in days (D) or hours (H), X, the number of doses. Where survival is the endpoint, this PubChem deposit counts one and a half times the control or more as active, and values a quarter to a half above the control carry no call in these data; other NCI protocols may use other cut-offs. Some entries hold several experiments; the results are listed from low to high. Some T/C values are followed by the survivors on the day toxicity was checked, most often the fifth; without a count, all were alive then.
# Test system: BDF1 mice, P388 leukemia ip, median survival T/C
# Assay: NCI In Vivo Anticancer Drug Screen. Data for tumor model P388 Leukemia (intraperitoneal) in B6D2F1 (BDF1) mice
# Settings: T/C endpoint: median survival time, higher T/C = longer survival
# In short: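 Antitumour effect was judged in vivo: survival in drug-treated mice, normalised to that of vehicle-dosed controls, gives the reported T/C.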
# [1] = dose: 50.0 mg/kg/injection, schedule: Q04DX003 (ip), vehicle: saline with Tween-80
# [2] = dose: 200.0 mg/kg/injection, schedule: Q01DX009 (ip), vehicle: saline
smiles,measurement,setting,value
Cc1cc2c(c3oc(C4(C)OC4C4OC4C)cc(=O)c13)C(=O)c1c(O)c(C3CC(C)(N(C)C)C(O)C(C)O3)cc(C3CC(N(C)C)C(O)C(C)O3)c1C2=O (stereo unspecified),survivor count,"dose: 0.06 mg/kg/injection, schedule: Q01DX010 (ip), vehicle: other",10 of 10
same,survivor count,"dose: 0.12 mg/kg/injection, schedule: Q01DX010 (ip), vehicle: other",7 of 10
same,survivor count,"dose: 0.12 mg/kg/injection, schedule: Q01DX010 (ip), vehicle: saline",8 of 10
same,survivor count,"dose: 0.24 mg/kg/injection, schedule: Q01DX010 (ip), vehicle: other",2 of 10
same,survivor count,"dose: 0.24 mg/kg/injection, schedule: Q01DX010 (ip), vehicle: saline",7 of 10
same,survivor count,"dose: 0.48 mg/kg/injection, schedule: Q01DX010 (ip), vehicle: other",0 of 10
same,survivor count,"dose: 0.48 mg/kg/injection, schedule: Q01DX010 (ip), vehicle: saline",2 of 10
same,survivor count,"dose: 0.96 mg/kg/injection, schedule: Q01DX010 (ip), vehicle: other",0 of 10
same,survivor count,"dose: 0.96 mg/kg/injection, schedule: Q01DX010 (ip), vehicle: saline",0 of 10
same,T/C,"dose: 0.3 micrograms/kg/injection, schedule: Q01DX010 (ip), vehicle: saline",136 % of control
same,T/C,"dose: 0.5 micrograms/kg/injection, schedule: Q01DX010 (ip), vehicle: saline",136 % of control
same,T/C,"dose: 1.0 micrograms/kg/injection, schedule: Q01DX010 (ip), vehicle: saline",145 % of control
same,T/C,"dose: 1.3 micrograms/kg/injection, schedule: Q01DX010 (ip), vehicle: steroid suspending solution",145 % of control
same,T/C,"dose: 2.5 micrograms/kg/injection, schedule: Q01DX010 (ip), vehicle: saline",127 % of control
same,T/C,"dose: 2.5 micrograms/kg/injection, schedule: Q01DX010 (ip), vehicle: steroid suspending solution",145 % of control
same,T/C,"dose: 3.0 micrograms/kg/injection, schedule: Q01DX009 (ip), vehicle: saline",135 % of control
same,T/C,"dose: 4.0 micrograms/kg/injection, schedule: Q01DX010 (ip), vehicle: other",127 % of control
same,T/C,"dose: 5.0 micrograms/kg/injection, schedule: Q01DX010 (ip), vehicle: saline",127 and 133 % of control
same,T/C,"dose: 7.5 micrograms/kg/injection, schedule: Q01DX010 (ip), vehicle: saline",131 and 145 % of control
same,T/C,"dose: 8.0 micrograms/kg/injection, schedule: Q01DX010 (ip), vehicle: carboxymethylcellulose (CMC)",127 % of control
same,T/C,"dose: 8.0 micrograms/kg/injection, schedule: Q01DX010 (ip), vehicle: other",127 % of control
same,T/C,"dose: 10.0 micrograms/kg/injection, schedule: Q01DX010 (ip), vehicle: saline",129 and 136 % of control
same,T/C,"dose: 15.0 micrograms/kg/injection, schedule: Q01DX010 (ip), vehicle: saline",140 and 145 % of control
same,T/C,"dose: 16.0 micrograms/kg/injection, schedule: Q01DX010 (ip), vehicle: carboxymethylcellulose (CMC)",136 % of control
same,T/C,"dose: 16.0 micrograms/kg/injection, schedule: Q01DX010 (ip), vehicle: other",140 % of control
same,T/C,"dose: 20.0 micrograms/kg/injection, schedule: Q01DX010 (ip), vehicle: saline",133 % of control
same,T/C,"dose: 30.0 micrograms/kg/injection, schedule: Q01DX010 (ip), vehicle: saline",127 % of control
same,T/C,"dose: 32.0 micrograms/kg/injection, schedule: Q01DX010 (ip), vehicle: carboxymethylcellulose (CMC)",140 % of control
same,survivor count,"dose: 32.0 micrograms/kg/injection, schedule: Q01DX010 (ip), vehicle: saline",6 of 6
same,survivor count,"dose: 40.0 micrograms/kg/injection, schedule: Q01DX010 (ip), vehicle: saline",6 of 6
same,survivor count,"dose: 60.0 micrograms/kg/injection, schedule: Q01DX010 (ip), vehicle: saline",10 of 10
N=c1ccn2c(n1)OC1C(O)C(COS(=O)OC3C(CO)OC4C3Oc3nc(=N)ccn34)OC12 (stereo unspecified),T/C,"dose: 50.0 mg/kg/injection, schedule: Q01DX009 (ip), vehicle: saline with Tween-80",138 % of control
CC(=O)CC(C)=O.CC(=O)CC(C)=O.O.O.[Co],T/C,[1],126 % of control
Cc1cccc(/C=N/Nc2ccccn2)n1,T/C,"dose: 200.0 mg/kg/injection, schedule: Q01DX005 (ip), vehicle: saline with Tween-80",125 % of control [4 of 6 alive]
same,T/C,"dose: 400.0 mg/kg/injection, schedule: Q01DX005 (ip), vehicle: saline with Tween-80",144 % of control [4 of 6 alive]
Cn1c([N+](=O)[O-])cnc1CSC(=S)N1CCN(C(=S)SCc2ncc([N+](=O)[O-])n2C)CC1,T/C,"dose: 200.0 mg/kg/injection, schedule: Q01DX009 (ip), vehicle: saline with Tween-80",125 % of control [4 of 5 alive]
C[N+]1(C2CCC3CCC2C3O)CCCCC1 (stereo unspecified),survivor count,"dose: 400.0 mg/kg/injection, schedule: Q04DX003 (ip), vehicle: saline",0 of 6
CCOC(=O)c1cc[nH]c1CC(=O)NC,T/C,"dose: 100.0 mg/kg/injection, schedule: Q01DX001 (ip), vehicle: saline with Tween-80",127 % of control
COc1cccc2c1C(=O)c1c(O)c3c(c(O)c1C2=O)CC(O)(/C(C)=N/NC(=O)CC(=O)N/N=C(\C)C1(O)Cc2c(O)c4c(c(O)c2C(OC2CC(N)C(O)C(C)O2)C1)C(=O)c1c(OC)cccc1C4=O)CC3OC1CC(N)C(O)C(C)O1 (stereo unspecified),T/C,"dose: 1.56 mg/kg/injection, schedule: Q01DX009 (ip), vehicle: water",138 % of control
same,survivor count,"dose: 12.5 mg/kg/injection, schedule: Q01DX009 (ip), vehicle: water",1 of 6
same,survivor count,"dose: 25.0 mg/kg/injection, schedule: Q01DX009 (ip), vehicle: water",0 of 6
C[N+](C)(C)CN1C(=O)c2ccccc2C1=O,survivor count,[2],2 of 6
CCCOC1=C(N2CC2)C(=O)C(OCCC)=C(N2CC2)C1=O,T/C,"dose: 3.3 mg/kg/injection, schedule: Q04DX003 (ip), vehicle: saline with Tween-80",126 % of control
same,T/C,"dose: 5.0 mg/kg/injection, schedule: Q04DX003 (ip), vehicle: saline with Tween-80",130 % of control
same,T/C,"dose: 5.55 mg/kg/injection, schedule: Q04DX003 (ip), vehicle: saline with Tween-80",145 % of control
same,survivor count,[1],4 of 6
same,survivor count,"dose: 100.0 mg/kg/injection, schedule: Q04DX003 (ip), vehicle: saline with Tween-80",4 of 6
same,survivor count,"dose: 200.0 mg/kg/injection, schedule: Q04DX003 (ip), vehicle: saline with Tween-80",1 of 6
same,survivor count,"dose: 400.0 mg/kg/injection, schedule: Q04DX003 (ip), vehicle: saline with Tween-80",0 of 6
COc1cc2cc(c1Cl)NC(=O)/C=C/C(C)=C/[C@H](C)[C@@H]1C[C@@](O)(NC(=O)O1)[C@H](OC)C=C/C=C(\C)C2,survivor count,"dose: 12.5 micrograms/kg/injection, schedule: Q01DX009 (ip), vehicle: saline + alcohol",6 of 6
NC(=O)c1c(Br)n(C2OC(CO)C(O)C2O)c2ncnc(N)c12 (stereo unspecified),T/C,"dose: 100.0 mg/kg/injection, schedule: Q01DX009 (ip), vehicle: saline",137 % of control
same,T/C,[2],133 % of control
C[NH-].C[NH-].[Br][Pt+2][Br],T/C,"dose: 3.0 mg/kg/injection, schedule: Q04DX003 (ip), vehicle: other",145 % of control
same,survivor count,"dose: 25.0 mg/kg/injection, schedule: Q04DX003 (ip), vehicle: other",6 of 6
same,survivor count,"dose: 50.0 mg/kg/injection, schedule: Q04DX003 (ip), vehicle: other",5 of 6
COC(=O)CCC(=O)CCC(C)C,survivor count,"dose: 100.0 mg/kg/injection, schedule: Q01DX009 (ip), vehicle: saline with Tween-80",6 of 6
